Data taken from the supplement of paper PMC12889115.
Some of the results follow. Values are raw readings; no control value is given beside them.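 Primary screen: polymyxin B was added at a level permeabilizing Salmonella outer membranes while sparing inner membranes. DMSO wells, both with and without polymyxin B, established maximum growth. Plate-to-plate variation meant each plate was ranked on its own, and the lowest-OD600 compounds were selected as hits.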

Tested on: Salmonella enterica serovar Typhimurium SL1344
Assay: bacterial growth OD600 after 18 h with compound and polymyxin B; higher = more bacterial growth (less inhibition)
Details: 50 µM, Mueller-Hinton broth

| Structure (SMILES) | bacterial growth OD600 (polymyxin B 1 µg/mL) | bacterial growth OD600 (polymyxin B 0.75 µg/mL) |
| --- | --- | --- |
| O=C(CC(c1ccccc1)c1ccc(Cl)cc1)NCCN1CCCCC1=O (centres undefined) | 0.791 |  |
| CCCCNC(=O)c1cn(C(C)C)cc(C(=O)NC2CCN(Cc3ccccc3)C2)c1=O (centres undefined) |  | 0.854 |
| COc1cccc(OCc2nc(C(=O)N3CCC(C)CC3)co2)c1 | 0.971 |  |
| Cc1cccc(NC(=O)CCC2CCN(S(=O)(=O)c3ccc(C)s3)CC2)c1 | 0.673 |  |
| COC(C(=O)Nc1ccnn1C1CCN(C(=O)c2cccs2)CC1)c1ccccc1 (centres undefined) | 0.852 |  |
| CCOC(=O)N1CCN(C(=O)C2CCC(=O)N(Cc3ccc(Cl)cc3)C2)CC1 (centres undefined) | 1.08 |  |
| O=C1NCCN(Cc2ccccc2F)C1CC(=O)N(Cc1ccccc1)CC1CC1 (centres undefined) | 0.01 |  |
| CC#CCN1C(=O)NC(CCc2ccccc2)(C2CCN(Cc3ccc(F)cc3F)CC2)C1=O (centres undefined) |  | 0.483 |
| OC[C@@H]1CCCN1c1ccc(-c2nc(COc3ccccc3)no2)cn1 | 0.474 |  |

Quoted at random: 2 entries already listed

| Structure (SMILES) | bacterial growth OD600 (polymyxin B 1 µg/mL) | bacterial growth OD600 (polymyxin B 0.75 µg/mL) |
| --- | --- | --- |
| O=C1NCCN(Cc2ccccc2F)C1CC(=O)N(Cc1ccccc1)CC1CC1 (centres undefined) | 0.01 |  |
| Cc1cccc(NC(=O)CCC2CCN(S(=O)(=O)c3ccc(C)s3)CC2)c1 | 0.673 |  |
